Data reported in PubChem BioAssay AID2685 (National Center for Advancing Translational Sciences (NCATS), 2010).
“And” between values parts separate entries of the source, which are not always exact repeats. Identical values can stand only once. The list shows a part of the results. These are further read-outs of the screen, such as a control signal, another cell line or another target. No call is given for them. Compounds called inactive in the main read-out are mostly missing here. Potencies come from curve fits of mixed quality, noted in brackets.

Assay: qHTS Assay for Lipid Storage Modulators in Drosophila S3 Cells;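 on cell number change: cells counted by Cell Tracker Red CMTPX staining in the red channel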
Details: BODIPY lipid droplet fluorescence, 18-24 h; for cell number change: measured here: cell count max response, cells fed with added oleic acid
Method in brief: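 Drosophila S3 cells got compounds at several concentrations plus oleic acid (400 uM solution). Laser-scanning cytometry with 488 nm excitation read lipid droplets at 500-530 nm and cells at 575-640 nm. Percent activity was relative to 20 uM Triacsin C.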

[1] = measured here: lipid fluorescence (Fed channel) AC50, cells fed with added oleic acid
[2] = measured here: cell number channel AC50, cells fed with added oleic acid

## c1ccc(CCNCc2cccnc2)cc1
  cell number change: 0.351%
[1]
  AC50: 16.4 µM [rising, single point]

## CCOP(=S)(OCC)Oc1cc(C)oc(=O)c1
  cell number change: 27.2%
[1]
  AC50: 0.411 µM [rising, partial curve, poor fit]

## Cc1ccsc1/C=C1\C(=O)NC(=S)N(C)C1=O
  cell number change: -23.4%
[1]
  AC50: 18.4 µM [falling, single point]

## CC(C)OC(=O)c1c(N)n(CC2CCCO2)c2nc3ccccc3nc12 (stereo not drawn)
[2]
  AC50: 3.26 µM [rising, partial curve]

## CCc1ccc(CNCCc2c[nH]c3ccccc23)cc1
  cell number change: 28.8%

## C[C@]12CC[C@H](O)C[C@@H]1CC[C@@H]1[C@@H]2CC[C@]2(C)[C@@H](C(=O)O)C[C@@H]12
  cell number change: 7.39%

## CC12CC3CC(C)(C1)CC(N)(C3)C2
  cell number change: -2.91% and 1.39%
[1]
  AC50: 6.51 µM [falling, single point] and 731 nM [falling, single point]

## COc1ccc(OC)c(CN2CCN(C(=O)COc3cccc(C)c3)CC2)c1
  cell number change: -23.4%

## CCOC(=O)c1c(C)n(Cc2ccc3c(c2)OCO3)c2ccc(O)cc12
  cell number change: 15.6%

## COc1ccc2c(c1)CC1(CN2C)C(=O)NC(=O)N(c2ccc(C)cc2)C1=O (stereo not drawn)
  cell number change: 6.14%
[2]
  AC50: 0.13 µM [falling, full curve, poor fit]

## CCCCCCn1c(=O)c(C(=O)Nc2ncccc2O)c(O)c2ccccc21
[1]
  AC50: 9.2 µM [falling, single point]

## O=c1c2ccccc2nc(-c2cccs2)n1-c1ccccc1
[1]
  AC50: 29.1 µM [rising, single point]

## COc1cccc(N2CCN(C(=O)C3CCN(S(=O)(=O)c4ccc5c(c4)oc(=O)n5C)CC3)CC2)c1
[2]
  AC50: 29.1 µM [falling, single point]

## CCOC(=O)c1cc(C)n(CCc2cnc[nH]2)c1C
  cell number change: -1.68%
[1]
  AC50: 20.6 µM [falling, partial curve, poor fit]

## Cc1sc2ncn(CC(=O)N3CCC4(CC3)OCCO4)c(=O)c2c1C
  cell number change: 0.271%
[1]
  AC50: 16.4 µM [rising, single point]

## CC(=O)c1cn(Cc2ccccc2F)c2ccccc12
  cell number change: -33.3%
[2]
  AC50: 4.61 µM [falling, partial curve, poor fit]
[1]
  AC50: 0.0326 µM [falling, full curve, poor fit]

## Cc1cc(C=O)c(C)n1CC1CCCO1 (stereo not drawn)
  cell number change: -10.8%
[1]
  AC50: 0.58 µM [falling, partial curve, poor fit]

## Cc1ccc(N)c(C(=O)c2ccc(Br)cc2)c1
  cell number change: -56%
[2]
  AC50: 29.1 µM [falling, single point]
[1]
  AC50: 29.1 µM [falling, single point]

## O=c1cc(CN2CCNCC2)nc2sccn12
  cell number change: -32.6%
[2]
  AC50: 0.58 µM [falling, full curve, poor fit]

## Fc1cccc(CNCCc2c[nH]c3ccccc23)c1
  cell number change: -24.7%

## CCC(=O)OC1(Cc2ccc(CC)cc2)CC(C)N(C)CC1C (stereo not drawn)
  cell number change: -21.3%
[2]
  AC50: 0.103 µM [falling, full curve, poor fit]
[1]
  AC50: 0.58 µM [falling, full curve]

## CC(C)(C)NC(=O)NC(=O)CN1CC=C(c2ccccc2)CC1
  cell number change: 22.4%
[1]
  AC50: 32.6 µM [rising, single point]

## O=C1NC(=O)N(c2ccc3c(c2)OCO3)C(=O)/C1=C\c1ccc(-c2ccccc2C(=O)O)o1
  cell number change: -52.7%
[2]
  AC50: 8.2 µM [falling, partial curve]
[1]
  AC50: 20.6 µM [falling, partial curve]

## CCCCn1c(O)c(C(CC)=NCc2cc(OC)cc(OC)c2)c(=O)[nH]c1=O
  cell number change: 14.9%
[1]
  AC50: 29.1 µM [rising, single point]

## O=c1[nH]sc2cc(F)ccc12
  cell number change: -80.2%
[2]
  AC50: 29.1 µM [falling, partial curve, poor fit]
[1]
  AC50: 29.1 µM [falling, single point]

## C(#CCN1CCCC1)CN1CCCC1
  cell number change: 2.97%

## CCCSc1nc(O)c(CC)c(=O)n1C(C)CC (stereo not drawn)
  cell number change: -2.84%
[1]
  AC50: 18.4 µM [falling, partial curve, poor fit]

## COc1ccc(C2=NCC(=O)N(CC(=O)NCc3ccco3)c3sc4c(c32)CCCC4)cc1OC
  cell number change: -7.78%
[2]
  AC50: 6.51 µM [rising, single point]
[1]
  AC50: 23.1 µM [falling, single point]

## CN(C)C(=O)Oc1ccc2oc(=O)cc(-c3cc4ccccc4o3)c2c1
  cell number change: 24.2%
[1]
  AC50: 0.092 µM [falling, full curve, poor fit]

## CCC(=NCc1cccnc1)c1c(O)n(Cc2ccccc2)c(=O)[nH]c1=O
  cell number change: -28.8%

## CCOP(=O)(OCC)C1(O)C(=O)Nc2ccccc21 (stereo not drawn)
  cell number change: -17.5%
[2]
  AC50: 0.651 µM [rising, full curve]
[1]
  AC50: 1.3 µM [rising, partial curve]

## CN(C)c1ccc(NC(=O)CN2C(=O)CN=C(c3ccccc3)c3ccccc32)cc1
[1]
  AC50: 1.84 µM [falling, partial curve, poor fit]

## O=S(=O)(c1ccc(Cl)cc1)N1CCCCC1c1cccnc1 (stereo not drawn)
  cell number change: 26.7%
[2]
  AC50: 2.31 µM [rising, partial curve, poor fit]

## COC(=O)C1=C(c2ccc3ccccc3c2)C[C@@H]2CC[C@H]1N2C(=O)N1CCC(O)CC1
  cell number change: 0.481%
[1]
  AC50: 0.58 µM [rising, single point]

## COc1cc(/C=C/c2nc3ccccc3c(=O)n2-c2ccc(O)cc2)ccc1O
  cell number change: -24.9%
[1]
  AC50: 23.1 µM [falling, partial curve]

## CC(=O)N(C1=NCCCS1)c1ccc(F)cc1
[1]
  AC50: 29.1 µM [falling, single point]

## Cc1cc(C)cc(N2C(=O)NC(=O)/C(=C/c3cccn3-c3ccc(Cl)cc3)C2=O)c1
  cell number change: -44.1%
[2]
  AC50: 10.3 µM [falling, partial curve]
[1]
  AC50: 5.8 µM [falling, full curve]

## Cc1cc(S(=O)(=O)NCc2ccccc2)ccc1OCC(=O)N1CCN(C)CC1
[1]
  AC50: 0.116 µM [falling, full curve, poor fit]

## Cc1ccsc1-c1nc(CSCC(=O)N2CCC3(CC2)OCCO3)c(C)o1
  cell number change: -13.8%
[1]
  AC50: 29.1 µM [falling, single point]

## COc1ccc(C2SCC(=O)Nc3c2c(=O)[nH]n3C2CCCCCC2)cc1OC (stereo not drawn)
  cell number change: -10.3%

## COc1ccc(CN2CCN(C(=O)COc3ccc4ccccc4c3)CC2)c(OC)c1
  cell number change: 0.917%
[1]
  AC50: 14.6 µM [rising, partial curve, poor fit]

## O=c1[nH]c(=S)n(-c2ccccc2F)c(O)c1C=NCc1ccco1
  cell number change: -24.9%

## O=[N+]([O-])c1cccc2c([N+](=O)[O-])cccc12
  cell number change: 16.9%

## COC(=O)C1=C(c2cccc(C#N)c2)C[C@@H]2CC[C@H]1N2C(=O)NCc1ccc(F)cc1
  cell number change: 2.76%

## O=C(C1CCCO1)N1CCC2(CC1)OCCO2 (stereo not drawn)
  cell number change: 7.82%
[1]
  AC50: 3.26 µM [falling, full curve, poor fit]

## CCN1CCN(Cc2cc(OC)c(OC)cc2[N+](=O)[O-])CC1
  cell number change: 3.29%
[2]
  AC50: 6.51 µM [rising, single point]

## CCCCn1c(O)c(C(C)=NCC2CCCO2)c(=O)[nH]c1=O (stereo not drawn)
  cell number change: -8.49%

## CNc1ccc2nc3ccccc3[n+](C)c2c1
  cell number change: -89.6%
[2]
  AC50: 29.1 µM [falling, single point]
[1]
  AC50: 29.1 µM [falling, single point]

## c1ccc(CNC2=NCCS2)cc1
  cell number change: 6.47%

## O=C1NC(=O)C(=CN2CCc3ccccc32)C(=O)N1
  cell number change: 0.148%

## CCc1ccc(OCC(=O)N2CCN(CC(=O)Nc3ccccc3Cl)CC2)cc1
  cell number change: 20.5%
[1]
  AC50: 25.9 µM [rising, single point]

## C[C@H]1[C@@H](c2ccccc2)O[C@@H](c2ccccc2Br)N1C
  cell number change: -16.5%
[1]
  AC50: 6.51 µM [falling, single point]

## CCN(CC)C(=O)Oc1ccc(OC(=O)N(CC)CC)cc1
[2]
  AC50: 0.58 µM [falling, partial curve, poor fit]

## Cc1oc(-c2ccccc2)nc1CN1C(=O)C(C)N=C(c2ccccc2F)c2cc(Cl)ccc21 (stereo not drawn)
  cell number change: 23.8%
[1]
  AC50: 1.84 µM [rising, partial curve]

## O=C1NC(=O)N(Cc2ccccc2)C(=O)/C1=C/c1cnc(-c2ccccc2)nc1
  cell number change: 14.8%
[1]
  AC50: 0.731 µM [rising, full curve, poor fit]

## COC(=O)C1=C(c2cccc(C#N)c2)C[C@@H]2CC[C@H]1N2C(=O)N1CCOCC1
  cell number change: -44.3%
[2]
  AC50: 29.1 µM [falling, single point]

## COC(=O)C1=C(c2ccc(OC(F)(F)F)cc2)C[C@@H]2CC[C@H]1N2C(=O)N1CCOCC1
  cell number change: -5.42%
[1]
  AC50: 29.1 µM [falling, single point]

## CCN1CCN(c2ccc([N+](=O)[O-])cc2C#N)CC1
  cell number change: 40.7%
[2]
  AC50: 14.6 µM [rising, single point]

## CSc1ncc(/C=C2/C(=O)NC(=O)N(c3ccc(Cl)cc3)C2=O)cn1
  cell number change: 36%
[2]
  AC50: 0.58 µM [rising, full curve, poor fit]
[1]
  AC50: 3.66 µM [rising, partial curve, poor fit]

## O=S(=O)(c1ccc(Cl)cc1)N1CC1c1ccccc1 (stereo not drawn)
  cell number change: -68.8%
[2]
  AC50: 1.03 µM [falling, full curve]
[1]
  AC50: 1.03 µM [falling, full curve]

## C[C@]12CCC3[C@@H](CCC4=CC(=O)CC[C@@]43CO)C1CCC2=O (stereo partly drawn)
  cell number change: 45.8%
[2]
  AC50: 0.291 µM [rising, full curve, poor fit]

## O=C1CCN(C(=O)Cc2ccccc2[N+](=O)[O-])CC1
  cell number change: -6.95%
[1]
  AC50: 6.51 µM [rising, single point]
